Experimental data reported in PMC11310202.
Positions count from the first letter of the chain named. No constants are given. Whether binding was seen depends on the method and setting. Binding seen in cells or lysates may run through a third protein. Some results given as binding are weak or reduced against the parent protein; the word gives no strength.

T1: VIMm-SVIP-mCherry (SVIP with three point mutations in the VCP-interacting motif) (human) (UniProt Q8NHG7)
T1 sequence: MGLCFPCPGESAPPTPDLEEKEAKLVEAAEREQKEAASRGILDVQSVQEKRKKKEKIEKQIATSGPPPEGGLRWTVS

T2: WT-SVIP-mCherry (small VCP-interacting protein, wild type, C-terminal mCherry) (human) (UniProt Q8NHG7)
T2 sequence (chain, myristoylated at Glycine 2; palmitoylated at Cysteines 4 and 7): T1 sequence with E22R, V26A, E32R

B1: WT-SVIP-mCherry (small VCP-interacting protein, wild type, C-terminal mCherry) (protein, UniProt Q8NHG7 1-77)
chain: T1 sequence with E22R, V26A, E32R
modifications: myristoylated at Glycine 2; palmitoylated at Cysteines 4 and 7
B2: VIMm-SVIP-mCherry (SVIP with three point mutations in the VCP-interacting motif) (protein, UniProt Q8NHG7 1-77)
chain: T1 sequence

Legend:
[1] = molecular target: T1, VIMm-SVIP-mCherry (SVIP with three point mutations in the VCP-interacting motif) (human); experiment: co-IP; immunoprecipitation of SVIP-mCherry with anti-mCherry from lysates of HEK293T cells co-expressing VCP-GFP and SVIP-mCherry; VCP-GFP detected by blot
[2] = molecular target: T2, WT-SVIP-mCherry (small VCP-interacting protein, wild type, C-terminal mCherry) (human); experiment: as above
[3] = molecular target: WT-VCP-GFP (valosin-containing protein, wild type, C-terminal GFP) (UniProt P55072); experiment: co-IP; immunoprecipitation of VCP-GFP with anti-GFP from lysates of HEK293T cells co-expressing VCP-GFP and SVIP-mCherry; SVIP-mCherry detected by blot

Molecule	binding [1]	binding [2]	binding [3]
WT-VCP-GFP (valosin-containing protein, wild type, C-terminal GFP) (from UniProt P55072 1-806)	no binding	binds	
B1			binds
B2			no binding
